Measurements as given in US5284826A, “0-hydroxyethyl and acyloxyethyl derivatives of [ser]^8 cyclosporins” (Sandoz Ltd., priority 1989, dated 1994).
At least one peptide structure holds a part that was inferred or is arguable (an end, a ring closure or a residue).

What was measured:
[1] = system: kidney allograft; experiment: Kidney Allograft Reaction in the Rat; format: in vivo; settings: Test Method 2, rat kidney allograft, treatment for 14 days
[2] = system: allergic encephalomyelitis (EAE); experiment: Experimentally Induced Allergic Encephalomyelitis (EAE) in the Rat; format: in vivo; settings: Test Method 3, EAE in male Wistar rats
[3] = system: Freund's adjuvant arthritis; experiment: Freund's Adjuvant Arthritis; format: in vivo, rat; settings: Test Method 4, adjuvant arthritis in rats
[4] = system: Graft-versus-Host (GvH) reaction; experiment: Localised Graft-versus-Host (GvH) Reaction in the rat; format: in vivo; settings: Test Method 1, rat, treated 4 consecutive days, lymph nodes weighed day 7

`C/C=C/C[C@@H](C)[C@@H](O)[C@H]1C(=O)N[C@@H](CC)C(=O)N(C)CC(=O)N(C)[C@@H](CC(C)C)C(=O)N[C@@H](C(C)C)C(=O)N(C)[C@@H](CC(C)C)C(=O)N[C@@H](C)C(=O)N[C@H](COCCO)C(=O)N(C)[C@@H](CC(C)C)C(=O)N(C)[C@@H](CC(C)C)C(=O)N(C)[C@@H](C(C)C)C(=O)N1C` [Example 2, [O-(2-hydroxyethyl)(D)Ser]^8 -Ciclosporin] was tested, and the “ED: dosage required to prolong survival to >100 days in 100% of treated rats” value [1] was 2.5 mg/kg, the “ED: dosage required to reduce disease symptomatology by 100% as compared with untreated controls” value [2] was 25 mg/kg and the “ED: dosage required to reduce swelling to that recorded for untreated controls” value [3] was 20 mg/kg. The “ED50: dosage required to reduce average difference in weight between node pairs by 50% as compared with untreated controls” value [4] was 25 mg/kg.
